Laboratory results from ChEMBL document CHEMBL4316593 (Eur J Med Chem, 2019).
This continues a long series; more values of the same kind are listed elsewhere.

What was measured:
Assay type in all cases: cell-based
Settings in all cases: U-87MG ATCC
[1] = Inhibition of RTK/PI3K/AKT/mTOR signaling in human U87 cells assessed as down regulation of IL17RA gene expression at cytotoxic IC50 measured after 48 hrs relative to control
[2] = Inhibition of RTK/PI3K/AKT/mTOR signaling in human U87 cells assessed as up regulation of forkhead box O4 gene expression at cytotoxic IC50 measured after 48 hrs relative to control
[3] = Inhibition of RTK/PI3K/AKT/mTOR signaling in human U87 cells assessed as down regulation of ADRM1 gene expression at cytotoxic IC50 measured after 48 hrs relative to control
[4] = Inhibition of RTK/PI3K/AKT/mTOR signaling in human U87 cells assessed as down regulation of NCAPD3 gene expression at cytotoxic IC50 measured after 48 hrs relative to control
[5] = Inhibition of RTK/PI3K/AKT/mTOR signaling in human U87 cells assessed as down regulation of GAK gene expression at cytotoxic IC50 measured after 48 hrs relative to control
[6] = Inhibition of RTK/PI3K/AKT/mTOR signaling in human U87 cells assessed as up regulation of UBE2R2 gene expression at cytotoxic IC50 measured after 48 hrs relative to control
[7] = Inhibition of RTK/PI3K/AKT/mTOR signaling in human U87 cells assessed as down regulation of MCM7 gene expression at cytotoxic IC50 measured after 48 hrs relative to control
[8] = Inhibition of RTK/PI3K/AKT/mTOR signaling in human U87 cells assessed as up regulation of filamin B gene expression at cytotoxic IC50 measured after 48 hrs relative to control
[9] = Inhibition of RTK/PI3K/AKT/mTOR signaling in human U87 cells assessed as down regulation of HAPLN3 gene expression at cytotoxic IC50 measured after 48 hrs relative to control
[10] = Inhibition of RTK/PI3K/AKT/mTOR signaling in human U87 cells assessed as down regulation of CYB5R3 gene expression at cytotoxic IC50 measured after 48 hrs relative to control
[11] = Inhibition of RTK/PI3K/AKT/mTOR signaling in human U87 cells assessed as down regulation of USP11 gene expression at cytotoxic IC50 measured after 48 hrs relative to control
[12] = Inhibition of RTK/PI3K/AKT/mTOR signaling in human U87 cells assessed as down regulation of SMURF1 gene expression at cytotoxic IC50 measured after 48 hrs relative to control
[13] = Inhibition of RTK/PI3K/AKT/mTOR signaling in human U87 cells assessed as down regulation of RAB35 gene expression at cytotoxic IC50 measured after 48 hrs relative to control
[14] = Inhibition of RTK/PI3K/AKT/mTOR signaling in human U87 cells assessed as up regulation of integrin subunit beta 4 gene expression at cytotoxic IC50 measured after 48 hrs relative to control
[15] = Inhibition of RTK/PI3K/AKT/mTOR signaling in human U87 cells assessed as down regulation of KIAA0907 gene expression at cytotoxic IC50 measured after 48 hrs relative to control
[16] = Inhibition of RTK/PI3K/AKT/mTOR signaling in human U87 cells assessed as up regulation of RPSA gene expression at cytotoxic IC50 measured after 48 hrs relative to control
[17] = Inhibition of RTK/PI3K/AKT/mTOR signaling in human U87 cells assessed as down regulation of SULF2 gene expression at cytotoxic IC50 measured after 48 hrs relative to control
[18] = Inhibition of RTK/PI3K/AKT/mTOR signaling in human U87 cells assessed as down regulation of TMEM38B gene expression at cytotoxic IC50 measured after 48 hrs relative to control
[19] = Inhibition of RTK/PI3K/AKT/mTOR signaling in human U87 cells assessed as up regulation of MRPL42 gene expression at cytotoxic IC50 measured after 48 hrs relative to control
[20] = Inhibition of RTK/PI3K/AKT/mTOR signaling in human U87 cells assessed as up regulation of DLG4 gene expression at cytotoxic IC50 measured after 48 hrs relative to control
[21] = Inhibition of RTK/PI3K/AKT/mTOR signaling in human U87 cells assessed as up regulation of IL20RB gene expression at cytotoxic IC50 measured after 48 hrs relative to control
[22] = Inhibition of RTK/PI3K/AKT/mTOR signaling in human U87 cells assessed as up regulation of KLK7 gene expression at cytotoxic IC50 measured after 48 hrs relative to control
[23] = Inhibition of RTK/PI3K/AKT/mTOR signaling in human U87 cells assessed as down regulation of TCF19 gene expression at cytotoxic IC50 measured after 48 hrs relative to control
[24] = Inhibition of RTK/PI3K/AKT/mTOR signaling in human U87 cells assessed as up regulation of TNFRSF18 gene expression at cytotoxic IC50 measured after 48 hrs relative to control
[25] = Inhibition of RTK/PI3K/AKT/mTOR signaling in human U87 cells assessed as down regulation of CPEB4 gene expression at cytotoxic IC50 measured after 48 hrs relative to control
[26] = Inhibition of RTK/PI3K/AKT/mTOR signaling in human U87 cells assessed as down regulation of ZNF101 gene expression at cytotoxic IC50 measured after 48 hrs relative to control
[27] = Inhibition of RTK/PI3K/AKT/mTOR signaling in human U87 cells assessed as down regulation of AEN gene expression at cytotoxic IC50 measured after 48 hrs relative to control
[28] = Inhibition of RTK/PI3K/AKT/mTOR signaling in human U87 cells assessed as down regulation of NEAT1 gene expression at cytotoxic IC50 measured after 48 hrs relative to control
[29] = Inhibition of RTK/PI3K/AKT/mTOR signaling in human U87 cells assessed as up regulation of regulator of G-protein signaling 16 gene expression at cytotoxic IC50 measured after 48 hrs relative to control
[30] = Inhibition of RTK/PI3K/AKT/mTOR signaling in human U87 cells assessed as down regulation of UBE3B gene expression at cytotoxic IC50 measured after 48 hrs relative to control
[31] = Inhibition of RTK/PI3K/AKT/mTOR signaling in human U87 cells assessed as up regulation of LEMD1 gene expression at cytotoxic IC50 measured after 48 hrs relative to control
[32] = Inhibition of RTK/PI3K/AKT/mTOR signaling in human U87 cells assessed as up regulation of MARCKS gene expression at cytotoxic IC50 measured after 48 hrs relative to control
[33] = Inhibition of RTK/PI3K/AKT/mTOR signaling in human U87 cells assessed as down regulation of MAFG gene expression at cytotoxic IC50 measured after 48 hrs relative to control

CC(=O)C(=NNc1ccccc1C#N)C(C)=O
log2FC [1]: -0.53
log2FC [2]: 1.23
log2FC [3]: -1.21
log2FC [4]: -1
log2FC [5]: -0.58
log2FC [6]: 0.487
log2FC [7]: -0.524
log2FC [8]: 0.727
log2FC [9]: -1.09
log2FC [10]: -0.466
log2FC [11]: -0.646
log2FC [12]: -0.651
log2FC [13]: -0.5
log2FC [14]: 1.38
log2FC [15]: -0.518
log2FC [16]: 0.581
log2FC [17]: -0.909
log2FC [18]: -1.16
log2FC [19]: 0.537
log2FC [20]: 2.65
log2FC [21]: 3.64
log2FC [22]: 2.76
log2FC [23]: -1.39
log2FC [24]: 1.87
log2FC [25]: -1.1
log2FC [26]: -1.23
log2FC [27]: -0.471
log2FC [28]: -0.941
log2FC [29]: 0.843
log2FC [30]: -0.531
log2FC [31]: 3.14
log2FC [32]: 0.527
log2FC [33]: -0.65
